Publication PMC11184876
Results are given in words; binding and its absence hold for the method and conditions named. In cells and extracts the contact can be indirect. Some entries that bind do so weakly or less than the wild type.

By UniProt entry, the sequences of proteins in these tests, tags left out.
UniProt Q09666: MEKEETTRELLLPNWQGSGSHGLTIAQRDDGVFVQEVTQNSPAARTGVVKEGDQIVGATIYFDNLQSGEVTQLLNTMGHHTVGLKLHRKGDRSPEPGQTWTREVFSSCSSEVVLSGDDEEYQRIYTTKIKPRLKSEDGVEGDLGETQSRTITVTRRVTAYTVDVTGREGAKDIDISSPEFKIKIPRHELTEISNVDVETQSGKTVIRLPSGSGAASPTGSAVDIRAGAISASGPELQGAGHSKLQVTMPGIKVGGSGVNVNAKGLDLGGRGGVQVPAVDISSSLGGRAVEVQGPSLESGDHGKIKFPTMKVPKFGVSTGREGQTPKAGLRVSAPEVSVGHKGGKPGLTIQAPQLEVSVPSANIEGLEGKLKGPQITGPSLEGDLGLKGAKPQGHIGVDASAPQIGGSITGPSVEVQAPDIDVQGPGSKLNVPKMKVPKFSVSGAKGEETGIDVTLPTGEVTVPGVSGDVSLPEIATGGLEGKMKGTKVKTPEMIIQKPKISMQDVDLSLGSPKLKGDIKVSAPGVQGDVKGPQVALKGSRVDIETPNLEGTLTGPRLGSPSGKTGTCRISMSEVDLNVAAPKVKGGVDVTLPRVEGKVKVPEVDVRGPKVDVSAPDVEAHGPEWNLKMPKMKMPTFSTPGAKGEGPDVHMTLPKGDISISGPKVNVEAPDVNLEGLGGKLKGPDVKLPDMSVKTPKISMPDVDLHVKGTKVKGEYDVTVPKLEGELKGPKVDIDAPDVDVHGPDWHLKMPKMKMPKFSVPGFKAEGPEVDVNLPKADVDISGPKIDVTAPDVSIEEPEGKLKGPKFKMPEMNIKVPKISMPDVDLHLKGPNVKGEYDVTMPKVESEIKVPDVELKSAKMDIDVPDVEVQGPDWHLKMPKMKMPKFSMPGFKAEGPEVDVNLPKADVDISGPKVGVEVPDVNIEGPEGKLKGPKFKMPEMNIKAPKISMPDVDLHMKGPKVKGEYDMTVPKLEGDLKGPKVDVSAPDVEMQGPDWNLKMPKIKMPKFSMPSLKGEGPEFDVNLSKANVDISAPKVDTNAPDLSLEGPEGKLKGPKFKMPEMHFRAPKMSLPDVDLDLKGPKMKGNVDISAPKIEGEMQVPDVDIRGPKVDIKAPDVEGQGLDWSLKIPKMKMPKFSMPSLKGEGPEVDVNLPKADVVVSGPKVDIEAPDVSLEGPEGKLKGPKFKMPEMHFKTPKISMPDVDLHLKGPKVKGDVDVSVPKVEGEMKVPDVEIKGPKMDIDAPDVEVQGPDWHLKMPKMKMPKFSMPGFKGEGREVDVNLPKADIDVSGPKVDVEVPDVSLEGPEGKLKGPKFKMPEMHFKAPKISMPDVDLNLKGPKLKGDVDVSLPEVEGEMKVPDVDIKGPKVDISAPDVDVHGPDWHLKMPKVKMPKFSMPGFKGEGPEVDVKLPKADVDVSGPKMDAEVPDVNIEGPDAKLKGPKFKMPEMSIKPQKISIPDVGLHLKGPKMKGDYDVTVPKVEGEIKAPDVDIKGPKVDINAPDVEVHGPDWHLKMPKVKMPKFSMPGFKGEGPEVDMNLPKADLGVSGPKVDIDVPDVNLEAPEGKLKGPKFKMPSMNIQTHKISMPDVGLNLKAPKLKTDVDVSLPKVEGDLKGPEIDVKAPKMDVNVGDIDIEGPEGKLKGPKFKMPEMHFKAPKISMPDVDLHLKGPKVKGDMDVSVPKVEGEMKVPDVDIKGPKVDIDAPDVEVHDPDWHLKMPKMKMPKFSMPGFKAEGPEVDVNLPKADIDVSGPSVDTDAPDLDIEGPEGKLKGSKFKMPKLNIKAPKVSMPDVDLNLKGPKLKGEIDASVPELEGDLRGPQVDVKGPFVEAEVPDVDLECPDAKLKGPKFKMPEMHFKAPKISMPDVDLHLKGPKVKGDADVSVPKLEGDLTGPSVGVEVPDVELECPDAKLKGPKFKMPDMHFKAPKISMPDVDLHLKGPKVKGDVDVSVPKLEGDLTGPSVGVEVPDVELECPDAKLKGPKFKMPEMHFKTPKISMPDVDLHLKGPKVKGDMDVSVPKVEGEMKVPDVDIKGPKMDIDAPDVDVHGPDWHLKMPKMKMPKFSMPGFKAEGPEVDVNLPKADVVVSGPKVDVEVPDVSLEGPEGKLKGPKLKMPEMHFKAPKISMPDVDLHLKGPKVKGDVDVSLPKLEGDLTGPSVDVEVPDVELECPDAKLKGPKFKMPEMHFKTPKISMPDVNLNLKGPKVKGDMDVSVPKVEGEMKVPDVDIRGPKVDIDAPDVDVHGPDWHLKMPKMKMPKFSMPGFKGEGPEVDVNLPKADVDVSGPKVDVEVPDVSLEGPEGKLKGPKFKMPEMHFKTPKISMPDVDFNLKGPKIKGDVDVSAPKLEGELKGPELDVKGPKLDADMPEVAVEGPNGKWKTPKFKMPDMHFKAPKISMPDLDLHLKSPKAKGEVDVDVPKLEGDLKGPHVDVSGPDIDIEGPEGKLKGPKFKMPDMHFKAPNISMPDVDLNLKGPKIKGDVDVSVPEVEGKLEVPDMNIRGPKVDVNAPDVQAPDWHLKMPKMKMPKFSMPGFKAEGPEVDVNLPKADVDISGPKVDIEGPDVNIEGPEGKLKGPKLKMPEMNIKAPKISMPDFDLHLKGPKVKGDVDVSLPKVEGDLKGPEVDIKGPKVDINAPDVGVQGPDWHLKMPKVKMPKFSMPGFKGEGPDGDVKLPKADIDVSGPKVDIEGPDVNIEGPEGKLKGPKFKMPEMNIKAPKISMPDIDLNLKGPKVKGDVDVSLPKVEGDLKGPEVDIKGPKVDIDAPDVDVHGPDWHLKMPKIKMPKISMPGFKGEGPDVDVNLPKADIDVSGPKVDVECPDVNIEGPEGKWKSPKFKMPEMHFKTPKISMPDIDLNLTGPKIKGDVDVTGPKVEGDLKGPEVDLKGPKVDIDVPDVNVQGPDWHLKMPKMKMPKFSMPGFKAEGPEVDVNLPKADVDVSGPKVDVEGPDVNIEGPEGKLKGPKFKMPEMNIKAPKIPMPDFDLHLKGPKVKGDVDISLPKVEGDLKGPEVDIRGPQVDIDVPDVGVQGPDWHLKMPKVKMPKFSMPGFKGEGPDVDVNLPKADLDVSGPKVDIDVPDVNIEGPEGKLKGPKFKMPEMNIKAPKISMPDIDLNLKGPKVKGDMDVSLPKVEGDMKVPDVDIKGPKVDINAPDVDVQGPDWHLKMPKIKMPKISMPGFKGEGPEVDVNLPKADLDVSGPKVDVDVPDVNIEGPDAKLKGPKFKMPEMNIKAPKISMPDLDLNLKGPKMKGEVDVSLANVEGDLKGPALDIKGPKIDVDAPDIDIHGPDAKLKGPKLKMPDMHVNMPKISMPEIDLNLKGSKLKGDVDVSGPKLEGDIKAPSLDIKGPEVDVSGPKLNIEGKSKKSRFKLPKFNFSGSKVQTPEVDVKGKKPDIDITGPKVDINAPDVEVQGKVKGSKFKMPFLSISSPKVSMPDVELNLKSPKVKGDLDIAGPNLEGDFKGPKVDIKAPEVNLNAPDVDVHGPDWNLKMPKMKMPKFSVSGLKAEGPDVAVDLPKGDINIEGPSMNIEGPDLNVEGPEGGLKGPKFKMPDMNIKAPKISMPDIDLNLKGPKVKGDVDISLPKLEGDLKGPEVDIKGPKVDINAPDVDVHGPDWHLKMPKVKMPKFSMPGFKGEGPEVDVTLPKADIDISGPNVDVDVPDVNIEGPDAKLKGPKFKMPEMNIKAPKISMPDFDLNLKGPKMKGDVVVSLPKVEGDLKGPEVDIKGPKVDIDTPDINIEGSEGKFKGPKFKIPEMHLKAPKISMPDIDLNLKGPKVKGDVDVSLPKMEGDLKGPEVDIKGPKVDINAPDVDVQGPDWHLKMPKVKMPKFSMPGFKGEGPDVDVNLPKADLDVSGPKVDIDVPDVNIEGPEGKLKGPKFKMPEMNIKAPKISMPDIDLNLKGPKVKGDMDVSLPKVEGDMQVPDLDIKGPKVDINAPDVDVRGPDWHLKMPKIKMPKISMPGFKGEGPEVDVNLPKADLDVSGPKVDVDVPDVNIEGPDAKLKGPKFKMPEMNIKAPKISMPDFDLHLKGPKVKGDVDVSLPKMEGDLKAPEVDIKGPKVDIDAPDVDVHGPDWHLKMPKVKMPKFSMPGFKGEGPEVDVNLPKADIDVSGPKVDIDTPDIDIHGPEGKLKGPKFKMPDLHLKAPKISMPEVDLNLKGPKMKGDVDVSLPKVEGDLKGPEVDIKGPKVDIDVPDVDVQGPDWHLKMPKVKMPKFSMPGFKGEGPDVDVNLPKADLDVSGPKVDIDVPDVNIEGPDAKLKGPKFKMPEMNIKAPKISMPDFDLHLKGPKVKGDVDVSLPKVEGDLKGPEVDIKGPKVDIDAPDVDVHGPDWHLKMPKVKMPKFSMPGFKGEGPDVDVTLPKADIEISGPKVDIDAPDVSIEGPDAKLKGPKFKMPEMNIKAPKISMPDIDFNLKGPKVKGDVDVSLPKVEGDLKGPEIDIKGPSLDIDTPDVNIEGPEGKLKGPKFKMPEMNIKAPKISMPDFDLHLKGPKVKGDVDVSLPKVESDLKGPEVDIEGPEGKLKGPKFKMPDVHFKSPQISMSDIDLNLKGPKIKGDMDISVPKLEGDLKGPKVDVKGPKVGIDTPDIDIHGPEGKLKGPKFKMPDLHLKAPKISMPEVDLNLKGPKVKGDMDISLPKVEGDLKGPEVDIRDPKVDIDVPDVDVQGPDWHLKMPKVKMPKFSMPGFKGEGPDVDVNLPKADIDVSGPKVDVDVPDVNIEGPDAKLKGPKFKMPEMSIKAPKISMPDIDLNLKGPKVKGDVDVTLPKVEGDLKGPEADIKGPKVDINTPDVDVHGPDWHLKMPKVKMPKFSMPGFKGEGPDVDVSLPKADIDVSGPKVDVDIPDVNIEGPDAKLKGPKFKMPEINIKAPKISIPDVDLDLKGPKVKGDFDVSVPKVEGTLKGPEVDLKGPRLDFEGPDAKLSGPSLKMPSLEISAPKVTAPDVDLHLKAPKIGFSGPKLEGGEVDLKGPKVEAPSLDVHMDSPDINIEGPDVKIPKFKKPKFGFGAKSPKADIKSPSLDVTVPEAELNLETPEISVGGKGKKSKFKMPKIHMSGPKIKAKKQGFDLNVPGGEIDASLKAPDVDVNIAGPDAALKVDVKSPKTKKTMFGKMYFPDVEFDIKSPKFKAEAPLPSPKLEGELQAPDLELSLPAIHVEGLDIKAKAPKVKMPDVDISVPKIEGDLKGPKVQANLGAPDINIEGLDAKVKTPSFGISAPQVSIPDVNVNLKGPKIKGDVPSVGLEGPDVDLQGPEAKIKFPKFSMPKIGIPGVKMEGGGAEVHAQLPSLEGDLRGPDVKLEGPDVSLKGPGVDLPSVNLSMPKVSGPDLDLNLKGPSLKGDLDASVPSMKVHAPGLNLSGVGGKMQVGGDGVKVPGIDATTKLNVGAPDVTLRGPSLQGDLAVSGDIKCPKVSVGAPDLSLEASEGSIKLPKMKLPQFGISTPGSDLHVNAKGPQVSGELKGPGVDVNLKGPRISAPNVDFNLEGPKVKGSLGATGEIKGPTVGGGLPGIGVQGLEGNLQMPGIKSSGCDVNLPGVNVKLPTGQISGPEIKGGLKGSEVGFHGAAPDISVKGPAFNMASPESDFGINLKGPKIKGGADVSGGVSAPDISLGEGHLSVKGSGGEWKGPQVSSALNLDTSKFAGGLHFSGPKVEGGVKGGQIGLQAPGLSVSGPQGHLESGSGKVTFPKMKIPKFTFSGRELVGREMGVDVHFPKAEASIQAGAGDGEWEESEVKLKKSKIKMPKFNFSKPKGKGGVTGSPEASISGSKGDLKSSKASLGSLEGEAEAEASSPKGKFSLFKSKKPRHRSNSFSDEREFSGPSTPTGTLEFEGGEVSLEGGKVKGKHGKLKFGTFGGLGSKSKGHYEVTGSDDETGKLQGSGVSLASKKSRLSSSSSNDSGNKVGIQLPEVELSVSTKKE
UniProt Q14258: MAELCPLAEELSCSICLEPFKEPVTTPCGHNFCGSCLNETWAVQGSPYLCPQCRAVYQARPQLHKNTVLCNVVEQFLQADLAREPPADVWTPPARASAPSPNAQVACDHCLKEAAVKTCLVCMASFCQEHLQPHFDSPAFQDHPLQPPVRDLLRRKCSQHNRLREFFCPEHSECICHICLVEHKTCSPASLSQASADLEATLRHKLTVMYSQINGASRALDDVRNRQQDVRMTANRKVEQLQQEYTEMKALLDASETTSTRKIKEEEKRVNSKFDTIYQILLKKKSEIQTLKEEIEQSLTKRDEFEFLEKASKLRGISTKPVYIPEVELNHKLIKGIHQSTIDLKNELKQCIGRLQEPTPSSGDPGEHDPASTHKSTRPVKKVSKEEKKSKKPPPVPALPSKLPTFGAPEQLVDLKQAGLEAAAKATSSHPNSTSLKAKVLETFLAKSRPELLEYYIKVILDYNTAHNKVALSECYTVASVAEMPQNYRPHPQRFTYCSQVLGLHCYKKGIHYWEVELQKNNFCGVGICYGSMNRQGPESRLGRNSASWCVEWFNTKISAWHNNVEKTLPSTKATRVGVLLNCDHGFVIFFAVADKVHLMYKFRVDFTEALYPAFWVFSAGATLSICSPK

Target: AHNAK protein (human (in human NSCLC cells)) (UniProt Q09666)
Experiment: co-IP; NSCLC cell lysates incubated with antibodies and magnetic beads at 4 °C overnight, washed with cell lysis buffer, eluate analysed by western blot; also done after circ6834 overexpression (binding enhanced)

## TRIM25 (from UniProt Q14258 1-630) (enzyme)
  binding: binds
